Test results from PubChem BioAssay AID250 (DTP/NCI, 2004).
The list does not hold the whole screen: it gathers tests that were run many times, whatever their T/C, doses with no T/C, and many T/C values between a quarter and a half above the control. Other doses and runs of a compound stand elsewhere. T/C: endpoint of the treated group in % of that of the vehicle group. Some entries give survivors of the animals treated and no T/C: the source holds a T/C of zero for them, seemingly a mark for toxic or unscored doses. Some doses without a T/C left all or most animals alive at the check, yet need not have been tolerated: survival well below the control is almost never listed, so the zero probably covers shortened survival too. For some assays here: Survivors were counted at the toxicity check, usually on the fifth day, unless a day is given; later deaths do not show. Schedules are NCI's codes, taken here to give the interval after Q, in days (D) or hours (H), and the number of doses after X. Some schedules carry Z or #; the key to these is not given. Some structures stand for samples that the source files as different forms (salt, stereo form or complex); doses refer to the form tested. Some entries were tested several times; the results are listed from low to high. For survival time, this PubChem deposit counts one and a half times the control or more as active, and values a quarter to a half above the control carry no call in these data; other NCI protocols may use other cut-offs. Additions like (4×) stand for listed records that agree.

What was measured:
[1] = test system: BDF1 mice, L1210 leukemia sc; assay: NCI In Vivo Anticancer Drug Screen. Data for tumor model L1210 Leukemia (subcutaneous) in B6D2F1 (BDF1) mice; settings: T/C endpoint: mean survival time, vehicle: sodium bicarbonate, higher T/C = longer survival
Description: (§1) The antitumor activity of compounds was measured in mice bearing transplantable tumors. Survival or tumor size were measured and the results are expressed as the measurement made in the treated group (T) divided by the measurement made in the vehicle treated control group (C). The tumor model used in this assay is L1210 Leukemia (subcutaneous) in B6D2F1 (BDF1) mice

[2] = test system: BDF1 mice, L1210 leukemia sc, survival T/C; assay: as above; settings: higher T/C = longer survival; for T/C: schedule: Q01DX009 (sc)
Description: as §1

[3] = T/C endpoint: median survival time, dose: 65.0 mg/kg/injection, schedule: Q01DX Z (sc), vehicle: methylcellulose (MC)
[4] = T/C endpoint: median survival time, dose: 108.0 mg/kg/injection, schedule: Q01DX Z (sc), vehicle: methylcellulose (MC)
[5] = T/C endpoint: median survival time, dose: 180.0 mg/kg/injection, schedule: Q01DX Z (sc), vehicle: methylcellulose (MC)
[6] = T/C endpoint: median survival time, dose: 300.0 mg/kg/injection, schedule: Q01DX Z (sc), vehicle: methylcellulose (MC)
[7] = T/C endpoint: median survival time, dose: 3.0 mg/kg/injection, schedule: Q01DX Z (sc), vehicle: methylcellulose (MC)
[8] = T/C endpoint: median survival time, dose: 5.0 mg/kg/injection, schedule: Q01DX Z (sc), vehicle: methylcellulose (MC)
[9] = T/C endpoint: median survival time, dose: 8.4 mg/kg/injection, schedule: Q01DX Z (sc), vehicle: methylcellulose (MC)
[10] = T/C endpoint: median survival time, dose: 14.0 mg/kg/injection, schedule: Q01DX Z (sc), vehicle: methylcellulose (MC)
[11] = T/C endpoint: median survival time, dose: 23.0 mg/kg/injection, schedule: Q01DX Z (sc), vehicle: methylcellulose (MC)
[12] = T/C endpoint: median survival time, dose: 39.0 mg/kg/injection, schedule: Q01DX Z (sc), vehicle: methylcellulose (MC)
[13] = T/C endpoint: median survival time, dose: 360.0 mg/kg/injection, schedule: Q01DX Z (sc), vehicle: water
[14] = T/C endpoint: median survival time, dose: 600.0 mg/kg/injection, schedule: Q01DX Z (sc), vehicle: water
[15] = T/C endpoint: median survival time, dose: 300.0 mg/kg/injection, schedule: Q01DX Z (sc), vehicle: saline
[16] = T/C endpoint: median survival time, dose: 39.0 mg/kg/injection, schedule: Q01DX Z (sc), vehicle: saline
[17] = T/C endpoint: median survival time, dose: 108.0 mg/kg/injection, schedule: Q01DX Z (sc), vehicle: saline
[18] = T/C endpoint: median survival time, dose: 180.0 mg/kg/injection, schedule: Q01DX Z (sc), vehicle: saline

In the case of `Nc1nc(N)c2nc(CN(CCO)c3ccc(C(=O)NC(CCC(=O)O)C(=O)O)cc3)cnc2n1` (centres undefined), the T/C ([1]; dose: 1.0 mg/kg/injection, schedule: Q01DX009 (ip)) is reported as 145 % of control, the T/C ([1]; dose: 4.0 mg/kg/injection, schedule: Q04DX003 (ip)) is reported as 132 % of control and the T/C ([1]; dose: 16.0 mg/kg/injection, schedule: Q04DX003 (ip)) is reported as 144 % of control. For the same compound, the T/C ([1]; dose: 32.0 mg/kg/injection, schedule: Q04DX003 (ip)) was 148 % of control and the T/C ([1]; dose: 64.0 mg/kg/injection, schedule: Q04DX003 (ip)) was 125 % of control.
With `CCCCCCC(=O)O[C@H]1CC[C@H]2[C@@H]3CCC4=CC(=O)CC[C@]4(C)[C@H]3CC[C@]12C` the T/C ([2]; T/C endpoint: median survival time, dose: 80.0 mg/kg/injection, vehicle: other) was 95, 100, 102, 105 % of control, the T/C ([2]; T/C endpoint: median survival time, dose: 160.0 mg/kg/injection, vehicle: other) was 100 (2×), 101, 102 % of control and the survivor count ([2]; T/C endpoint: median survival time, dose: 320.0 mg/kg/injection, schedule: Q01DX009 (ip), vehicle: other) was 10 of 10. The survivor count ([2]; T/C endpoint: median survival time, dose: 640.0 mg/kg/injection, schedule: Q01DX009 (ip), vehicle: other) was 3 of 10.
For `O=C(O)CCCc1ccc(N(CCCl)CCCl)cc1`, the survivor count [2, 3] was 2 of 10, the survivor count [2, 4] was 0 of 10 and the survivor count [2, 5] was 0 of 10. For the same compound, the survivor count [2, 6] was 0 of 10.
`O=C(c1ccc(C(=O)N2CC2)cc1)N1CC1` was tested, and the survivor count ([2]; T/C endpoint: median survival time, dose: 1.8 mg/kg/injection, schedule: Q01DX Z (sc), vehicle: methylcellulose (MC)) was 4 of 10, the survivor count [2, 7] was 4 of 10 and the survivor count [2, 8] was 5 of 10. The survivor count [2, 9] was 3 of 10, the survivor count [2, 10] was 5 of 10 and the survivor count [2, 11] was 4 of 10. For the same compound, the survivor count [2, 12] was 2 of 10.
With `CS(=O)(=O)OCCCl` the survivor count [2, 4] was 5 of 10 and the survivor count [2, 5] was 0 of 10.
`O=C(O)CS` was tested, and the survivor count [2, 5] was 2 of 10 and the survivor count [2, 6] was 0 of 10.
For `COc1cc(NS(C)(=O)=O)ccc1Nc1c2ccccc2nc2ccccc12`, the survivor count ([2]; T/C endpoint: mean survival time, dose: 10.0 mg/kg/injection, schedule: Q01DX009 (ip), vehicle: saline) was 8 of 10, the survivor count ([2]; T/C endpoint: mean survival time, dose: 20.0 mg/kg/injection, schedule: Q01DX009 (ip), vehicle: saline) was 10 of 10 and the survivor count ([2]; T/C endpoint: median survival time, dose: 8.0 mg/kg/injection, schedule: Q01DX009 (ip), vehicle: other) was 6 of 10.
`COc1cccc(/C=N/NC(N)=S)c1` was tested, and the survivor count [2, 13] was 1 of 10 and the survivor count [2, 14] was 0 of 10.
With `CCc1nc(N)nc(N)c1-c1ccc(Cl)cc1` the survivor count [2, 10] was 2 of 10, the survivor count [2, 11] was 2 of 10 and the survivor count [2, 12] was 4 of 10. For the same compound, the survivor count [2, 3] was 4 of 10.
In the case of `ClCCN(CCCl)c1ccc(CCNc2ccnc3cc(Cl)ccc23)cc1`, the survivor count [2, 7] is reported as 6 of 10, the survivor count ([2]; T/C endpoint: median survival time, dose: 3.0 mg/kg/injection, schedule: Q01DX Z (sc), vehicle: olive oil, sesame oil, peanut oil) is reported as 3 of 10 and the survivor count [2, 8] is reported as 6 of 10. The survivor count ([2]; T/C endpoint: median survival time, dose: 5.0 mg/kg/injection, schedule: Q01DX Z (sc), vehicle: olive oil, sesame oil, peanut oil) was 1 of 10, the survivor count [2, 9] was 6 of 10 and the survivor count ([2]; T/C endpoint: median survival time, dose: 8.4 mg/kg/injection, schedule: Q01DX Z (sc), vehicle: olive oil, sesame oil, peanut oil) was 4 of 10. The survivor count ([2]; T/C endpoint: median survival time, dose: 14.0 mg/kg/injection, schedule: Q01DX Z (sc), vehicle: olive oil, sesame oil, peanut oil) was 1 of 10, the survivor count [2, 11] was 5 of 10 and the survivor count ([2]; T/C endpoint: median survival time, dose: 23.0 mg/kg/injection, schedule: Q01DX Z (sc), vehicle: olive oil, sesame oil, peanut oil) was 3 of 10. For the same compound, the survivor count [2, 12] was 3 of 10 and 6 of 10, the survivor count ([2]; T/C endpoint: median survival time, dose: 39.0 mg/kg/injection, schedule: Q01DX Z (sc), vehicle: olive oil, sesame oil, peanut oil) was 5 of 10 and the survivor count [2, 3] was 3 of 10. For the same compound, the survivor count ([2]; T/C endpoint: median survival time, dose: 65.0 mg/kg/injection, schedule: Q01DX Z (sc), vehicle: olive oil, sesame oil, peanut oil) was 5 of 10, the survivor count [2, 4] was 4 of 10 and 5 of 10 and the survivor count ([2]; T/C endpoint: median survival time, dose: 108.0 mg/kg/injection, schedule: Q01DX Z (sc), vehicle: olive oil, sesame oil, peanut oil) was 3 of 10 and 6 of 10. The survivor count [2, 5] was 5 of 10 and the survivor count ([2]; T/C endpoint: median survival time, dose: 180.0 mg/kg/injection, schedule: Q01DX Z (sc), vehicle: olive oil, sesame oil, peanut oil) was 4 of 10.
`S=c1nc[nH]c2c1ncn2C1C=CCCC1` (centres undefined) was tested, and the survivor count [2, 9] was 6 of 10, the survivor count [2, 12] was 6 of 10 and the survivor count [2, 3] was 6 of 10. The survivor count [2, 5] was 6 of 10 and the survivor count [2, 6] was 3 of 10.
In the case of `CCNC(=O)c1cccnc1`, the survivor count ([2]; T/C endpoint: median survival time, dose: 14.0 mg/kg/injection, schedule: Q01DX Z (sc), vehicle: water) is reported as 6 of 10, the survivor count ([2]; T/C endpoint: median survival time, dose: 23.0 mg/kg/injection, schedule: Q01DX Z (sc), vehicle: water) is reported as 6 of 10 and the survivor count ([2]; T/C endpoint: median survival time, dose: 39.0 mg/kg/injection, schedule: Q01DX Z (sc), vehicle: water) is reported as 6 of 10. For the same compound, the survivor count ([2]; T/C endpoint: median survival time, dose: 65.0 mg/kg/injection, schedule: Q01DX Z (sc), vehicle: water) was 6 of 10 and the survivor count ([2]; T/C endpoint: median survival time, dose: 108.0 mg/kg/injection, schedule: Q01DX Z (sc), vehicle: water) was 5 of 10.
For `COC(=N)N`, the survivor count ([2]; T/C endpoint: median survival time, dose: 0.65 mg/kg/injection, schedule: Q01DX Z (sc), vehicle: methylcellulose (MC)) was 6 of 10, the survivor count ([2]; T/C endpoint: median survival time, dose: 1.08 mg/kg/injection, schedule: Q01DX Z (sc), vehicle: methylcellulose (MC)) was 5 of 10 and the survivor count [2, 8] was 6 of 10.
With `[I][Hg][CH2]C1COC([CH2][Hg][I])CO1` (centres undefined) the survivor count ([2]; T/C endpoint: median survival time, dose: 180.0 mg/kg/injection, schedule: Q01DX Z (sc), vehicle: other) was 1 of 10.
For `CCN(CC)C(=O)c1cccnc1`, the survivor count [2, 13] was 2 of 10, the survivor count [2, 14] was 0 of 10 and the survivor count ([2]; T/C endpoint: median survival time, dose: 1000.0 mg/kg/injection, schedule: Q01DX Z (sc), vehicle: water) was 0 of 10.
In the case of `CCOS(C)(=O)=O`, the survivor count [2, 15] is reported as 2 of 10.
For `CN(C)c1ccc(/C=C/c2ccc3ccccc3[n+]2C)cc1`, the survivor count [2, 9] was 3 of 10 and the survivor count [2, 10] was 4 of 10.
`C[C@]12C=CC(=O)C=C1CC[C@@H]1[C@@H]2CC[C@]2(C)OC(=O)CC[C@@H]12` was tested, and the survivor count [2, 4] was 6 of 10.
In the case of `O=C(O)c1cc(=O)[nH]c(=O)[nH]1`, the survivor count [2, 16] is reported as 6 of 10 and the survivor count [2, 17] is reported as 6 of 10.
`CCOC(=O)NP(=O)(N1CC1(C)C)N1CC1(C)C` (centres undefined) was tested, and the survivor count ([2]; T/C endpoint: median survival time, dose: 360.0 mg/kg/injection, schedule: Q01DX Z (sc), vehicle: methylcellulose (MC)) was 10 of 10, the survivor count ([2]; T/C endpoint: median survival time, dose: 600.0 mg/kg/injection, schedule: Q01DX Z (sc), vehicle: methylcellulose (MC)) was 10 of 10 and the survivor count ([2]; T/C endpoint: median survival time, dose: 1000.0 mg/kg/injection, schedule: Q01DX Z (sc), vehicle: methylcellulose (MC)) was 2 of 10.
With `CCOc1ccc(Nc2ncnc3nc[nH]c23)cc1CN(CCCl)CCCl` the survivor count ([2]; T/C endpoint: median survival time, dose: 23.0 mg/kg/injection, schedule: Q01DX Z (sc), vehicle: saline) was 4 of 10, the survivor count [2, 16] was 6 of 10 and the survivor count ([2]; T/C endpoint: median survival time, dose: 65.0 mg/kg/injection, schedule: Q01DX Z (sc), vehicle: saline) was 5 of 10. The survivor count [2, 17] was 0 of 10, the survivor count [2, 18] was 1 of 10 and the survivor count [2, 15] was 0 of 10. For the same compound, the survivor count ([2]; T/C endpoint: median survival time, dose: 500.0 mg/kg/injection, schedule: Q01DX Z (sc), vehicle: saline) was 0 of 10.
With `CC1(C)N=C(N)N=C(N)N1c1cccc(Br)c1` the survivor count [2, 11] was 3 of 10, the survivor count [2, 4] was 6 of 10 and the survivor count [2, 17] was 4 of 8. The survivor count [2, 5] was 2 of 10, the survivor count [2, 18] was 0 of 8 and 2 of 8 and the survivor count [2, 15] was 0 of 8.
